Assay results published in PMC7819943, “Rice protein-binding microarrays: a tool to detect cis-acting elements near promoter regions in rice”.
The list shows a part of the results.

Each sequence was assayed against T1, OsSMF1 (Oryza sativa, UniProt Q6ZLB0 1-436) (assay: protein-binding microarray (RPBM); PBS, 2% BSA, 51.3 ng/ul salmon testes DNA, 50 uM zinc acetate, 200 nM TF, 25 C, 1 h; high values mean tight binding). Details: protein: recombinant; tags: N-terminal polyhistidine and DsRed monomer fusion (pET32a); chain copies: 2; label: CyDye5-dUTP incorporated in the synthesized complementary strand; 3' TTTTT single-stranded linker to array surface; dsDNA, one strand shown.
T1 sequence: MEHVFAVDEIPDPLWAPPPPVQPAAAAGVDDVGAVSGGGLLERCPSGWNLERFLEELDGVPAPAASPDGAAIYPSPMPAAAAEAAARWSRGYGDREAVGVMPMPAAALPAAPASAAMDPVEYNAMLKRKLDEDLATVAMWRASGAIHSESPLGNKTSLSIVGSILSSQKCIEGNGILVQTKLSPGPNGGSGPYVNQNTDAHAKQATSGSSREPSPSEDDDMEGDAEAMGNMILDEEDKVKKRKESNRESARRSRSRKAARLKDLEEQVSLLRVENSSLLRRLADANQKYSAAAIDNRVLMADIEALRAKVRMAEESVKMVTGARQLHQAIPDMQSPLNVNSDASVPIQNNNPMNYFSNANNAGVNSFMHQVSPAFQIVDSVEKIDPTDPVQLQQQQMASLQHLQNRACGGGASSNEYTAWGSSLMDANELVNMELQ
Method in brief: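 Polyhistidine-tagged DsRed fusions of transcription factors, joined at the N-terminus, were expressed in E. coli BL21-CodonPlus and isolated on Ni–NTA. They were incubated at 200 nM for 1 h at 25 °C on a custom Agilent array, double-stranded and BSA-blocked, in PBS with 2% BSA, salmon testes DNA and 50 µM zinc acetate. The binding signal is per-feature fluorescence intensity (arbitrary units) read on an Axon 4000B scanner after washing.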

Row | Sequence | binding signal
1 | AGGGTTCCGCGCGCCGGCCATCTCCCCGCTTCTCACCCCACGGAGTCACCTAGTGCAG | 3410 fluorescence intensity (a.u.)
2 | CTAAAACTCAACATATAAACATGCCACCTCATCATCTATACGGAGTCACCTAGTGCAG | 7400 fluorescence intensity (a.u.)
3 | CTCCTCCCCTCTCCCTGCCACGCGGGCCCCACACCATCTCCGGAGTCACCTAGTGCAG | 6200 fluorescence intensity (a.u.)
4 | TTTACTACGCCGACCGGACTAACGTGGCAACATTACACACCGGAGTCACCTAGTGCAG | 4900 fluorescence intensity (a.u.)
5 | CTGGAGTGCGGATGTGGAATACACGTGTGCCCTGTTATAACGGAGTCACCTAGTGCAG | 8780 fluorescence intensity (a.u.)
6 | AACAATTCTTGAAGGTATGTCAGCATCCCTAGTTTAATAGCGGAGTCACCTAGTGCAG | 3610 fluorescence intensity (a.u.)
7 | ACACAGTGCGTGCCATGATCGTGACTCATGAGCCTTTTGCCGGAGTCACCTAGTGCAG | 17100 fluorescence intensity (a.u.)
8 | CAAGATAGCAATTGATTTACAGCGTATCGATCTATTTGTACGGAGTCACCTAGTGCAG | 3370 fluorescence intensity (a.u.)
9 | CAACCGGAAACGGGCGATCCACAACCACCACCTAAAATTACGGAGTCACCTAGTGCAG | 26100 fluorescence intensity (a.u.)
10 | GTAACATGGTTCACGTCATCTTATTTTGCACTTCAATTTACGGAGTCACCTAGTGCAG | 5570 fluorescence intensity (a.u.)
11 | CATTCCCTTTGCGCGCAGCCTCGTCGCCTCGCCTCGCCGACGGAGTCACCTAGTGCAG | 3240 fluorescence intensity (a.u.)
12 | ACAGCGTGGGTGGTTGGTCGACTACACACGCTCGTCGGAGCGGAGTCACCTAGTGCAG | 3160 fluorescence intensity (a.u.)
13 | TCGATCGTGCATTCATGTGCCCGTACACCTGCGTGCGTGTCGGAGTCACCTAGTGCAG | 5200 fluorescence intensity (a.u.)
14 | TTGGCTGATATGGCGCCTATATGGCTCCTATGACTAAGTACGGAGTCACCTAGTGCAG | 3580 fluorescence intensity (a.u.)
15 | GTCGCCGCAGCCCACGGATAGCCATGGCCCGTCATCGCCGCGGAGTCACCTAGTGCAG | 3610 fluorescence intensity (a.u.)
16 | AATCTTAAAATCTCTCCTCTCTCTCCAAGTCCCTGCCTCTCGGAGTCACCTAGTGCAG | 3330 fluorescence intensity (a.u.)
17 | CATCATCTCTATCATCATTTCTCATCCATCACTTTCTTTGCGGAGTCACCTAGTGCAG | 3400 fluorescence intensity (a.u.)
18 | GGCTTACGAGTTCTAACAACGTCATTTTGGACTCACCTTTCGGAGTCACCTAGTGCAG | 5120 fluorescence intensity (a.u.)
19 | ATGGAGCCTGACGTGGCAGCATGTAGCTGGTCCACGTCACCGGAGTCACCTAGTGCAG | 27400 fluorescence intensity (a.u.)
20 | ATTATTAACATGTGACAGCGACTCATTTTATGATATATTGCGGAGTCACCTAGTGCAG | 3810 fluorescence intensity (a.u.)
21 | TGAAGCGGCCGTCTTGTAAGCAATTGATGACGCCATACACCGGAGTCACCTAGTGCAG | 7780 fluorescence intensity (a.u.)

Row | Sequence | binding signal
22 | GAATAGCTGCTTGTTAACTAGGGATTAGAGGTGGGGTTTTCGGAGTCACCTAGTGCAG | 17400 fluorescence intensity (a.u.)
23 | AGGGGCAATCTCGCATGTGTCCCTTTGTTGGTCTAGTGGCCGGAGTCACCTAGTGCAG | 3340 fluorescence intensity (a.u.)
24 | CGTCTTGCAGAAGTGCTTAGGTGACATGGCAGAGGCAAATCGGAGTCACCTAGTGCAG | 7470 fluorescence intensity (a.u.)
25 | GCGTGGACACCCGGCTGCCGATGCTGGTGTACGTGTCGCGCGGAGTCACCTAGTGCAG | 4940 fluorescence intensity (a.u.)
26 | TAGGCCTAGGCCTGGGCGGACGGCGACAGGCGGGGACGGGCGGAGTCACCTAGTGCAG | 3680 fluorescence intensity (a.u.)
27 | CTCAGTCGTGCGTGCCTCGTGTAACGCAGGTGTTCGTTCCCGGAGTCACCTAGTGCAG | 3430 fluorescence intensity (a.u.)
28 | CGGTAGGATACGTGGACCCGGTCTTGGTGCTCCCCGTGTACGGAGTCACCTAGTGCAG | 5860 fluorescence intensity (a.u.)
29 | CAGCAGCAGCAGCAGCAATGTCCGGCACCGCCAACGCGACCGGAGTCACCTAGTGCAG | 3140 fluorescence intensity (a.u.)
30 | AAAACGCTAGTGTGATCCACGTATGGCCCATAAATATTGGCGGAGTCACCTAGTGCAG | 6700 fluorescence intensity (a.u.)
31 | TAGACCAAAATGCCCCTGACGCGGGCCCCACCTGTCATACCGGAGTCACCTAGTGCAG | 4730 fluorescence intensity (a.u.)
32 | CTGACAGCTTTTAGTTCACAAATATCAGTAAGATTTCCCTCGGAGTCACCTAGTGCAG | 43200 fluorescence intensity (a.u.)
33 | ATCCATGCGTGAGGATCGGAGTACGTGTTTATCTGATGGACGGAGTCACCTAGTGCAG | 4100 fluorescence intensity (a.u.)
34 | CATTTCCCCACGCACGCTGGCGTAGTTCATCCCAACGTCACGGAGTCACCTAGTGCAG | 4160 fluorescence intensity (a.u.)
35 | GTCAGACGACGCCTGGAACGAGCCCAATCCAAGGCCCACACGGAGTCACCTAGTGCAG | 27700 fluorescence intensity (a.u.)
36 | GCATAGCCTACTTATACTGAACCTTCTAACGTGTCGGATTCGGAGTCACCTAGTGCAG | 3700 fluorescence intensity (a.u.)
37 | GGCGTACAGGTGGCGCACAAGGTTGTGGCCATTGCCGGAGCGGAGTCACCTAGTGCAG | 3680 fluorescence intensity (a.u.)
38 | ATGCTGATGAATCAAGACGCCTCTACGGCCGATCTCGGGCCGGAGTCACCTAGTGCAG | 15100 fluorescence intensity (a.u.)
39 | GGTGGCCCCGAGGAGGTGCGCGTGGCGGCCGTGGCGCCGGCGGAGTCACCTAGTGCAG | 3840 fluorescence intensity (a.u.)
40 | GACGCCGTCGAGGCTCGTGGCGGTCGGCGCCACGTCCTCGCGGAGTCACCTAGTGCAG | 12300 fluorescence intensity (a.u.)
41 | CGGGGCAGCCGGCCATGACCATCCGCAGGTCCTGCAGGCTCGGAGTCACCTAGTGCAG | 20000 fluorescence intensity (a.u.)
42 | ATGGACCGCCACCTCGCGCCGAGCTTCCAGATCCCGCCGGCGGAGTCACCTAGTGCAG | 3380 fluorescence intensity (a.u.)

Laid out differently: entries from further up
Row	Sequence	binding signal
34	CATTTCCCCACGCACGCTGGCGTAGTTCATCCCAACGTCACGGAGTCACCTAGTGCAG	4160 fluorescence intensity (a.u.)
38	ATGCTGATGAATCAAGACGCCTCTACGGCCGATCTCGGGCCGGAGTCACCTAGTGCAG	15100 fluorescence intensity (a.u.)
39	GGTGGCCCCGAGGAGGTGCGCGTGGCGGCCGTGGCGCCGGCGGAGTCACCTAGTGCAG	3840 fluorescence intensity (a.u.)
